# Results taken from the supplement of paper PMC7666118.
# Chains of the proteins cited; added tags and fusions are not shown. Lines headed by an entry give the natural chain unless they say otherwise; changes in a name come on top.
# UniProt Q6GMV2: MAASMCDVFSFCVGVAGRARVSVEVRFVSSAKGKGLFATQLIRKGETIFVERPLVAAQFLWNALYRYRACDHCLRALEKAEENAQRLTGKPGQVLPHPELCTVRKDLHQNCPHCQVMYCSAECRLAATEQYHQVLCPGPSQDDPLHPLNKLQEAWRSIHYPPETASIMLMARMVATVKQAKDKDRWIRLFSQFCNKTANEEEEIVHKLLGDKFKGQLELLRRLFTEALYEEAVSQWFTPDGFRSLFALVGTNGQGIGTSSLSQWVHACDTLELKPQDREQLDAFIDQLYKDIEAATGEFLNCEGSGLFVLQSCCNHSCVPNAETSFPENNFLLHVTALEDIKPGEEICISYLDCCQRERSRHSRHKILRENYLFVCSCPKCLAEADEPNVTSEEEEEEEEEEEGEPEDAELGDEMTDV
# UniProt O95104: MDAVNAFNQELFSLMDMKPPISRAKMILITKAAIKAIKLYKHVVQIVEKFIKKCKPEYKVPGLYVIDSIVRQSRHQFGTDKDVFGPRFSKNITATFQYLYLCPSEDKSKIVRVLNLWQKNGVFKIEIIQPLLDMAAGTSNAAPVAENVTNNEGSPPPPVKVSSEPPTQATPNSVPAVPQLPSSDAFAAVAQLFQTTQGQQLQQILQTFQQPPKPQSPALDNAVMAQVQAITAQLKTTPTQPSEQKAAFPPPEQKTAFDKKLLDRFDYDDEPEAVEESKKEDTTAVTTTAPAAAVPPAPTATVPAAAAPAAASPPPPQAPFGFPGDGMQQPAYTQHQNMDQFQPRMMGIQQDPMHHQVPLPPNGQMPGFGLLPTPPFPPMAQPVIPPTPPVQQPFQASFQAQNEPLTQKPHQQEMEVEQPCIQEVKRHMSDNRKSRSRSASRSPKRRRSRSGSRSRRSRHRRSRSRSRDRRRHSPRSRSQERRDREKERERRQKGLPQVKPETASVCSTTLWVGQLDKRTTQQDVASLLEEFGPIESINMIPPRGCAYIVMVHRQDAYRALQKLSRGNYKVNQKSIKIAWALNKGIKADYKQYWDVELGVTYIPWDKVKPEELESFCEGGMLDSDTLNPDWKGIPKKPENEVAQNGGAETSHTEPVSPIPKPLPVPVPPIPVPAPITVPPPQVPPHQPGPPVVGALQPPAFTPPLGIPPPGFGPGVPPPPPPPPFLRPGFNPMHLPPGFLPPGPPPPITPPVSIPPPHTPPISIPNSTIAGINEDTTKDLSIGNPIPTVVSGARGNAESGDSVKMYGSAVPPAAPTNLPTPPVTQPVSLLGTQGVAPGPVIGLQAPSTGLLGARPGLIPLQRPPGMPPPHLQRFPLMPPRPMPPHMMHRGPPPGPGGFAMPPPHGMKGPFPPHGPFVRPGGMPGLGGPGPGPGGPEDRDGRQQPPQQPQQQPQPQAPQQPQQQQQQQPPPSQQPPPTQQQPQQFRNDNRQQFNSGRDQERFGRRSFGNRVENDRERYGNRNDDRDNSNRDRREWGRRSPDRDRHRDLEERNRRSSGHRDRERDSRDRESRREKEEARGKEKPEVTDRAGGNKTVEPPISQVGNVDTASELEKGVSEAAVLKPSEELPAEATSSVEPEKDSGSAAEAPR
# UniProt Q68D06: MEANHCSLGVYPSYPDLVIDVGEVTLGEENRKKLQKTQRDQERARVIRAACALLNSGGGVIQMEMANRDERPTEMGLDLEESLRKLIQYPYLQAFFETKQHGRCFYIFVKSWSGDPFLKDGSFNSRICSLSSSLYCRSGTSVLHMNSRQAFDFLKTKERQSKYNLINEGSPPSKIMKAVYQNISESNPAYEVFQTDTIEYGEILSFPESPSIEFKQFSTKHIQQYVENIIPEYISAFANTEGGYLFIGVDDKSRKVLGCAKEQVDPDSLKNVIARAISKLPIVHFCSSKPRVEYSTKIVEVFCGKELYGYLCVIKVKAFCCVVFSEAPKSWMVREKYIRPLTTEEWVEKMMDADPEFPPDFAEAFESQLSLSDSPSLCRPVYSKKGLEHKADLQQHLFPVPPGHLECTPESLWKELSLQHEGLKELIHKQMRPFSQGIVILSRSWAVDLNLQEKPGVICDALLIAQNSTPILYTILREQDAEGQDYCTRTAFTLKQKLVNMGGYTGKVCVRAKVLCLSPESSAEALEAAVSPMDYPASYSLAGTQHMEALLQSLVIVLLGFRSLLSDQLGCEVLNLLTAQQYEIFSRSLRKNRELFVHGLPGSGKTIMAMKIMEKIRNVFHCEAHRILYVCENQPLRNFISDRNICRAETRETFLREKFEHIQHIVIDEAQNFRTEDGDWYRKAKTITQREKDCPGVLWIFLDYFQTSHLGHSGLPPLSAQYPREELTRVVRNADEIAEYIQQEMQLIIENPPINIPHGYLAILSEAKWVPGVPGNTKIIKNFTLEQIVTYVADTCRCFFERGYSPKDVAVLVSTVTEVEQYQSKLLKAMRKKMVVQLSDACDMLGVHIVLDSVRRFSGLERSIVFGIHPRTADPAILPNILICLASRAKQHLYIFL
# UniProt Q16637, whole entry: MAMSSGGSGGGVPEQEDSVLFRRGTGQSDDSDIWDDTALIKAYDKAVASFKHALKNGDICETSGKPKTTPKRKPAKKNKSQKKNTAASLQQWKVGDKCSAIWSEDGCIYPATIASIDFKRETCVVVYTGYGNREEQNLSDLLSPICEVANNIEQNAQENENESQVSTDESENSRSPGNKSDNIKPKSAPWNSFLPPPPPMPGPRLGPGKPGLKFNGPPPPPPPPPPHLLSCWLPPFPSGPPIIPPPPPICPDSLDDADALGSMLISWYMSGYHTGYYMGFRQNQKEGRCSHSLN
# UniProt Q07955, whole entry: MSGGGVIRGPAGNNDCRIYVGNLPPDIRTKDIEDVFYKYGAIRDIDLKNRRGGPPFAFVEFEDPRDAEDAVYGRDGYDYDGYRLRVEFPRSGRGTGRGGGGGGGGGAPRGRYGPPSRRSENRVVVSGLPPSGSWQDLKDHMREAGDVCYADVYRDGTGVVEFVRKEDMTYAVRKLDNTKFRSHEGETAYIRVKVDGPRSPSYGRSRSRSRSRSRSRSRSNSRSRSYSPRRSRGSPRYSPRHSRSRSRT
# UniProt Q01130: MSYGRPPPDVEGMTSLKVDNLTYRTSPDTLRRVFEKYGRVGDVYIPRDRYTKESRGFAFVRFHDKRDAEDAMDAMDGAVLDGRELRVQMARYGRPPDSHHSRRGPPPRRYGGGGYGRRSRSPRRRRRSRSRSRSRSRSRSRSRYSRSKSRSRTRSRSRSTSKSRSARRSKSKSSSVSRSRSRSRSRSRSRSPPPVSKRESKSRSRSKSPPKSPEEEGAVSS
# UniProt Q15637: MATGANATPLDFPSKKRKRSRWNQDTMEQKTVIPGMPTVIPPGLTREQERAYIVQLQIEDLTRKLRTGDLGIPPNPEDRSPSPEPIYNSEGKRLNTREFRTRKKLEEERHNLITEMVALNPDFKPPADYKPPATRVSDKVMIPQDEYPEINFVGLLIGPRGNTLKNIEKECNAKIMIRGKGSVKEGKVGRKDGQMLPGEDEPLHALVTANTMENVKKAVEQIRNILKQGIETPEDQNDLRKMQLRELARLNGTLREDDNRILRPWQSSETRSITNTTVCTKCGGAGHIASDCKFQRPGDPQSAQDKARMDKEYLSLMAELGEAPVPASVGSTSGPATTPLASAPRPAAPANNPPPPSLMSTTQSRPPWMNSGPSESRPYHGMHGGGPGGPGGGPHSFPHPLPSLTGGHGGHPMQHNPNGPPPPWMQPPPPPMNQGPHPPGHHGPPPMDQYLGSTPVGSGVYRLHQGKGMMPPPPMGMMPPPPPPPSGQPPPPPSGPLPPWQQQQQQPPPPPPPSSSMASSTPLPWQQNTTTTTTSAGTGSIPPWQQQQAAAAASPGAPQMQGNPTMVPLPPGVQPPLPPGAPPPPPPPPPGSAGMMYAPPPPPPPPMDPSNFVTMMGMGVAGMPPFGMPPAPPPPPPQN
# UniProt Q7Z333: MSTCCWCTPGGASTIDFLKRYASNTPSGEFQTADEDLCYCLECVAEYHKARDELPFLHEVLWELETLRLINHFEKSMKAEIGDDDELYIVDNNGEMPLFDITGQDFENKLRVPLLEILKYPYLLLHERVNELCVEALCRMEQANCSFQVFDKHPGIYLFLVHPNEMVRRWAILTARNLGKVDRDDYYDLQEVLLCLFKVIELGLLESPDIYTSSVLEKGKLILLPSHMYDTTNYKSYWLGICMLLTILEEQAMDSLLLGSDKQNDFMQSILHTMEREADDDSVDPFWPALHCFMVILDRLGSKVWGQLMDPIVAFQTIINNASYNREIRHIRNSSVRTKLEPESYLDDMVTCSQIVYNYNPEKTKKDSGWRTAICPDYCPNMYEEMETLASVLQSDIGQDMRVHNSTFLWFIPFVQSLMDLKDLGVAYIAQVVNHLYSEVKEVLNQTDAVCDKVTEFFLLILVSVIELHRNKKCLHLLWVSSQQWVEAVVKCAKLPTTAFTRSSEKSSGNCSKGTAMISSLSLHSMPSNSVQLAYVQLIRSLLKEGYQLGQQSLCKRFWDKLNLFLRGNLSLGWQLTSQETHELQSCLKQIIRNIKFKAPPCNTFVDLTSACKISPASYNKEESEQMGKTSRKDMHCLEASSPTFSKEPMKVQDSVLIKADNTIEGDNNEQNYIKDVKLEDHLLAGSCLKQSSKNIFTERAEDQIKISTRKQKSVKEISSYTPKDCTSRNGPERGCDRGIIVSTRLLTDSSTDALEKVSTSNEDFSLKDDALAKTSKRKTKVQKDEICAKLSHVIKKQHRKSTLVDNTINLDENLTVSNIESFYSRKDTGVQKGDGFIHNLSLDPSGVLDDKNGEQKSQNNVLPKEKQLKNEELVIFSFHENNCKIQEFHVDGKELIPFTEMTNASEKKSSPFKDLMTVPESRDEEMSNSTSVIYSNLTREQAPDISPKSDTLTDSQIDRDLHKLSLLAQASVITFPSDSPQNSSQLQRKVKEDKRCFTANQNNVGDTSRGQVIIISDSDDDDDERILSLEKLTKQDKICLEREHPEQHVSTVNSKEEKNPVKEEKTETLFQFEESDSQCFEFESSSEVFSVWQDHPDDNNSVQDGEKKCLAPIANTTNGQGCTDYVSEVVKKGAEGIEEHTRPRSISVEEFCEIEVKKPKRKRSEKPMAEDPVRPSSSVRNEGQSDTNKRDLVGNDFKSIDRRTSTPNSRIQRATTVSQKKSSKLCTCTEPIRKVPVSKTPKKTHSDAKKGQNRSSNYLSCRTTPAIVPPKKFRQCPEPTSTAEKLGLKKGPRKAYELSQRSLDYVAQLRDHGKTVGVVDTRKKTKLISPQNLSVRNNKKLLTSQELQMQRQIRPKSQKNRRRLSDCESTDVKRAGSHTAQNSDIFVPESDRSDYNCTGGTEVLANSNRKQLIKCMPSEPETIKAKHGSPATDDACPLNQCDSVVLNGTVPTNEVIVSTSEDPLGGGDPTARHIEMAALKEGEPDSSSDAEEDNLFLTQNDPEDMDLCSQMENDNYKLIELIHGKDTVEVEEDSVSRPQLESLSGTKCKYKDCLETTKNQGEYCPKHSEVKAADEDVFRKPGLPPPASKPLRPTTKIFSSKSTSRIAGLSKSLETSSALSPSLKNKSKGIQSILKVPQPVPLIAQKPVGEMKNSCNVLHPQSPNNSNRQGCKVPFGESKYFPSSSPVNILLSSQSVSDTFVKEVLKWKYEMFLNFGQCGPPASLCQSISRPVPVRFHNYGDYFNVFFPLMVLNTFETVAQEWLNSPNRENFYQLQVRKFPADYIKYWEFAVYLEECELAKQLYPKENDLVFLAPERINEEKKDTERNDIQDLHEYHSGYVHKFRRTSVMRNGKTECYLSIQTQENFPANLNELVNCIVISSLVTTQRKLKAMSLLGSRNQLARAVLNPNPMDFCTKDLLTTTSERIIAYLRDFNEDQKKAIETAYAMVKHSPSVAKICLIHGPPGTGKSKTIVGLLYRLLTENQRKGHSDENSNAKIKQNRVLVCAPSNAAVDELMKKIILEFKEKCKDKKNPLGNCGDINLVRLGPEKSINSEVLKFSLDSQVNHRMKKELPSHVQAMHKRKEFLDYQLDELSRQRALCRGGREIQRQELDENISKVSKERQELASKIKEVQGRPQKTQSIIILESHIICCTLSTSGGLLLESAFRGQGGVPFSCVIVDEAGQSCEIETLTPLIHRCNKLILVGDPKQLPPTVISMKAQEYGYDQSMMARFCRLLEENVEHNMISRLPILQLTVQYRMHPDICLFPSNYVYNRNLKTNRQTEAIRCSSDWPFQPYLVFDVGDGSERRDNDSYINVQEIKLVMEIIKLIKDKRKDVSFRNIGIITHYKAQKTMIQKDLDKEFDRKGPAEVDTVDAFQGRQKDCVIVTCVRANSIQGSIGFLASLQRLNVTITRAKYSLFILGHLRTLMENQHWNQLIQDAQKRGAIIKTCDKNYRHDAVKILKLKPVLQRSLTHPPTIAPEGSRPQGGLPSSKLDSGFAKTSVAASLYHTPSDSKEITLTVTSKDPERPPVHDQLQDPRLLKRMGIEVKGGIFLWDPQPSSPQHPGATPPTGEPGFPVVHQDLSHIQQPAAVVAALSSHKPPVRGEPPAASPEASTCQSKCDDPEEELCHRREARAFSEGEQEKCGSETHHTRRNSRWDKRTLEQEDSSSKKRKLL
# The other results are listed elsewhere or left out.
# Compound: COc1ccc(Cn2ccc3cc(C)c(C(=O)NO)cc32)cc1
# Experiment: dose-dependent thermal stabilisation call (2D-TPP, DLPTP, 10% FDR) (binary (1 = stabilised)); higher = stabilised by the compound
# Settings: system: HL-60 intact cells; concentration range 0.04-10 µM
# Procedure: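 2D thermal proteome profiling in intact HL-60 cells treated with BRD-3811 (0, 0.04, 0.29, 2, 10 uM) for 90 min at 37 C, then heated 3 min at one of 12 temperatures (42-63.9 C). Soluble protein was quantified by TMT10 MS. The value is the DLPTP call of the paper: dose-dependent thermal stabilisation over all temperatures at 10% FDR (F-test of a dose-response against a flat model); one experiment, one call per tested protein.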
row,Target,dose-dependent thermal stabilisation call
1,SMYD5 (UniProt Q6GMV2),inactive: 0
2,SFRS15 (UniProt O95104),inactive: 0
3,SLFN13 (UniProt Q68D06),inactive: 0
4,SLC25A37 (UniProt Q9NYZ2),inactive: 0
5,SMN1 (UniProt Q16637),inactive: 0
6,SFRS1 (UniProt Q07955),inactive: 0
7,SFRS2 (UniProt Q01130),inactive: 0
8,SLC25A32 (UniProt Q9H2D1),inactive: 0
9,SF1 (UniProt Q15637),inactive: 0
10,SETX (UniProt Q7Z333),inactive: 0

# 2 entries picked at random from those above:
row,Target,dose-dependent thermal stabilisation call
4,SLC25A37 (UniProt Q9NYZ2),inactive: 0
9,SF1 (UniProt Q15637),inactive: 0
